{"source": "patent US9962360B2", "about": "“Compositions and methods for enhancing hair growth, promoting skin regeneration, and wound healing” (The Hospital for Sick Children, priority 2014, dated 2018)", "tested_on": "human SKPs", "test": "Dose response sphere forming assay in human SKPs cultures", "note": "Some of these results come from one statement about several compounds together. Some compounds share one range, which may span the group rather than tell each member."}
{"substance": "trimebutine maleate [TM]", "values": [{"measurement": "dose as low as which sphere number was enhanced", "result": "1 to 10", "unit": "nM"}]}
